Measured values: the supplement of paper PMC10849652
Some of the results follow.

By UniProt entry, the sequences of proteins in these tests, tags left out. Where a name states a change or a piece, a line headed by the entry shows the natural chain unless it says otherwise.
UniProt Q9H4B0: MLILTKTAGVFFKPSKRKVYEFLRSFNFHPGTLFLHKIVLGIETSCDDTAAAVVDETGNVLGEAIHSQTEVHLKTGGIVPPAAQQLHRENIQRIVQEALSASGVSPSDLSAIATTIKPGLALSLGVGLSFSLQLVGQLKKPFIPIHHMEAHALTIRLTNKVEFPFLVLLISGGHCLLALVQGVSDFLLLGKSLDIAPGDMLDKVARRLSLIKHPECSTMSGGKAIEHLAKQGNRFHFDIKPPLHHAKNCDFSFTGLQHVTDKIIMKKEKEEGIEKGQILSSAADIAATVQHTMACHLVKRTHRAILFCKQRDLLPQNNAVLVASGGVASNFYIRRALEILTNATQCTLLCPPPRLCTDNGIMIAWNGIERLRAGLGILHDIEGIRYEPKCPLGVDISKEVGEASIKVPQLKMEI
UniProt Q96E52: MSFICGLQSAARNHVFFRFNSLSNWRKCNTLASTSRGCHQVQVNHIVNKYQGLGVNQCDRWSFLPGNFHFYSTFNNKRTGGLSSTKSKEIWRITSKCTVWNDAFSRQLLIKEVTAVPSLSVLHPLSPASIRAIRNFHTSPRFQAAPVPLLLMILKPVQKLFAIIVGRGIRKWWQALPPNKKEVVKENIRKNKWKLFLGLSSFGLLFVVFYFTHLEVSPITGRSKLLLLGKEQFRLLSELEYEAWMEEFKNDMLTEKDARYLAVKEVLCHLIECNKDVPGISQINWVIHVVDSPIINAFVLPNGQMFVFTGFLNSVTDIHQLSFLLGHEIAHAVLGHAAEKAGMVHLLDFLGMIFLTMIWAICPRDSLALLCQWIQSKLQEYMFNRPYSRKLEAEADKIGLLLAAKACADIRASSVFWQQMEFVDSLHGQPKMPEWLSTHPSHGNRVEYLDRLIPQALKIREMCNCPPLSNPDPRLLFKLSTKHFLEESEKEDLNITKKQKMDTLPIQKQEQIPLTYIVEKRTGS
UniProt Q99571: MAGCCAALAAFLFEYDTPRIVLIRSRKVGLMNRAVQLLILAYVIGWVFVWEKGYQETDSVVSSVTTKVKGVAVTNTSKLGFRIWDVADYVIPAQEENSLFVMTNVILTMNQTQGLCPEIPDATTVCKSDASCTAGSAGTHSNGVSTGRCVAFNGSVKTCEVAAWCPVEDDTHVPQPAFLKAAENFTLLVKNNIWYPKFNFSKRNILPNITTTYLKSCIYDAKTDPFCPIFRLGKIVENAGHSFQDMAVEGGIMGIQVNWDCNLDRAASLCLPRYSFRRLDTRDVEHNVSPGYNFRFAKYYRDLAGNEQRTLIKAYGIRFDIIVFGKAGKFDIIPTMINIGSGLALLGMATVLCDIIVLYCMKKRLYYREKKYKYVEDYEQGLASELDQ
UniProt Q8IVL6: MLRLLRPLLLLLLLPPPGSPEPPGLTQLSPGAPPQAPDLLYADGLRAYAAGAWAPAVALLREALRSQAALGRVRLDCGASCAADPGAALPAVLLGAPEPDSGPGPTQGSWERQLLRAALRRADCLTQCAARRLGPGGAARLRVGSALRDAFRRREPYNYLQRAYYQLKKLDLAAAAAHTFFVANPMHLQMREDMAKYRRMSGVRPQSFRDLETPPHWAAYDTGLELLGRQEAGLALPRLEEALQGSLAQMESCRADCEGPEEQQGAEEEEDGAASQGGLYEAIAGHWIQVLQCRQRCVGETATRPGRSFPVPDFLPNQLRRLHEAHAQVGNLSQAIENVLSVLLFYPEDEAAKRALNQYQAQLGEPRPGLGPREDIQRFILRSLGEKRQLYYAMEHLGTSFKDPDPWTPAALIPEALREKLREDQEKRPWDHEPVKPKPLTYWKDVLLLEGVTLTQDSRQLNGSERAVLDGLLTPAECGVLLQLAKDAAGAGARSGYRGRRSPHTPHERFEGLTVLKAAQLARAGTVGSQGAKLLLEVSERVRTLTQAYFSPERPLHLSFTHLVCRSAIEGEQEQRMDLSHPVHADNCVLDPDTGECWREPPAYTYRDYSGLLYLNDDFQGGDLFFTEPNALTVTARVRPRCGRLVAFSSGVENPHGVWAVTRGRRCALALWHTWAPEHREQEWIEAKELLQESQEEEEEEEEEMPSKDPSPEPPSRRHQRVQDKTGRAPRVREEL
UniProt Q5BJF6: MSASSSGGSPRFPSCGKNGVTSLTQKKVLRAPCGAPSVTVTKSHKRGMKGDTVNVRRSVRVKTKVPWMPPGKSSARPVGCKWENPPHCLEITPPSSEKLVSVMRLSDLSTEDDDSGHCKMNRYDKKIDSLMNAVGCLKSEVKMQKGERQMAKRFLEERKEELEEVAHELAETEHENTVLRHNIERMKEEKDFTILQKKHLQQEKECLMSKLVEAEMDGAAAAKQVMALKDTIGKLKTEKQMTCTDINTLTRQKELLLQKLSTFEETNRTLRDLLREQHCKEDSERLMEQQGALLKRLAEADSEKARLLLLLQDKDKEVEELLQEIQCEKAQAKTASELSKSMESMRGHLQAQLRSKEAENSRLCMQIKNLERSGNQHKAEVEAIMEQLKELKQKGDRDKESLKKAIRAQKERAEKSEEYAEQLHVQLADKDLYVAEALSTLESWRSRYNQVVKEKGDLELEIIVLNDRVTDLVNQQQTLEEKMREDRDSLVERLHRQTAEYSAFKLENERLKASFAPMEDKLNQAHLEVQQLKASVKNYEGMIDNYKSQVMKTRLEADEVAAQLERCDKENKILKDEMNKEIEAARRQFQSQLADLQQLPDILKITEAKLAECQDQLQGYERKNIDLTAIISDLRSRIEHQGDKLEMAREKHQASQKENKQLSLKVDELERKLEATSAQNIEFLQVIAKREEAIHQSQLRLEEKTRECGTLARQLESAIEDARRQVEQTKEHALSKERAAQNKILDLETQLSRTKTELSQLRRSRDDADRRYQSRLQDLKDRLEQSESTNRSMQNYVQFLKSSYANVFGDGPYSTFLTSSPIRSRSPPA
UniProt Q92882: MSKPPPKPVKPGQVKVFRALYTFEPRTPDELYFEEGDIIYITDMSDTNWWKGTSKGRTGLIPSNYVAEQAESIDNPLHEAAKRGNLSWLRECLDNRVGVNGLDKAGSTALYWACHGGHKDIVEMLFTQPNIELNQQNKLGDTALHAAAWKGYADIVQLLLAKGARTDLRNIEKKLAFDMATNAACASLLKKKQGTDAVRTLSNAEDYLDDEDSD
UniProt Q9NZT2: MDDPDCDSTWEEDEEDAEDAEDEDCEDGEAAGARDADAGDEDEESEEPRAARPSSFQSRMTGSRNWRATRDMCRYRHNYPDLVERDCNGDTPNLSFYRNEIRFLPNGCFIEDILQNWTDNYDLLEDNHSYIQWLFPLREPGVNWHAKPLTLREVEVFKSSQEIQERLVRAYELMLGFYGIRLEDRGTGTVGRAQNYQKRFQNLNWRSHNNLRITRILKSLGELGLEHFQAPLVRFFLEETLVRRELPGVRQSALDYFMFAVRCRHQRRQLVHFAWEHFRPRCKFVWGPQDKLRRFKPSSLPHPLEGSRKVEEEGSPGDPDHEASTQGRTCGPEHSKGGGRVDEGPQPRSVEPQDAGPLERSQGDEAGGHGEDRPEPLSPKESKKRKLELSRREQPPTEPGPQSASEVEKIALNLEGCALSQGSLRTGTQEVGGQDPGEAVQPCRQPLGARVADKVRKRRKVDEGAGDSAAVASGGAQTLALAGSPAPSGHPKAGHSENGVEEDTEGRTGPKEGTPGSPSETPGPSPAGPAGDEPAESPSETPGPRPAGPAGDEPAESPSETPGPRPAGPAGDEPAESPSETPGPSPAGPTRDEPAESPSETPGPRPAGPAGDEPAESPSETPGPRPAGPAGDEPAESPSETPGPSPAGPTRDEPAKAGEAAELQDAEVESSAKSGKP
UniProt P13674: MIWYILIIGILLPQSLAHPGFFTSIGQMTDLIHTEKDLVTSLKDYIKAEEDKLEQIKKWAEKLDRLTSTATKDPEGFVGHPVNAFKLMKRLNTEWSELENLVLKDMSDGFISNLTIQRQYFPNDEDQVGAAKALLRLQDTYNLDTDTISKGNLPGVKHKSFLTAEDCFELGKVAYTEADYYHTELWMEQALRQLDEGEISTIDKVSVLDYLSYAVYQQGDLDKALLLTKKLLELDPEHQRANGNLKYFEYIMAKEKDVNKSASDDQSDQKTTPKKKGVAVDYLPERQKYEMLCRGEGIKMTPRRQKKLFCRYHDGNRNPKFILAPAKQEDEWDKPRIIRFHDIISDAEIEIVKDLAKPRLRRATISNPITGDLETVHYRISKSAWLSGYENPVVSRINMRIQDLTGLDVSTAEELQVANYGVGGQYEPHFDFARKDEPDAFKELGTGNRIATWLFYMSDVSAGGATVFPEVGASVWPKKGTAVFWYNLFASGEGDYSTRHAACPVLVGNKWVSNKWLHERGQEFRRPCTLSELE
UniProt Q9UKK6: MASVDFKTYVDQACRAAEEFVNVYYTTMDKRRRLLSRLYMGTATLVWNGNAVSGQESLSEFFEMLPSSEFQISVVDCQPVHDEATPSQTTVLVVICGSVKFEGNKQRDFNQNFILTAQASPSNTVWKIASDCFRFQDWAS
UniProt Q9H8K7: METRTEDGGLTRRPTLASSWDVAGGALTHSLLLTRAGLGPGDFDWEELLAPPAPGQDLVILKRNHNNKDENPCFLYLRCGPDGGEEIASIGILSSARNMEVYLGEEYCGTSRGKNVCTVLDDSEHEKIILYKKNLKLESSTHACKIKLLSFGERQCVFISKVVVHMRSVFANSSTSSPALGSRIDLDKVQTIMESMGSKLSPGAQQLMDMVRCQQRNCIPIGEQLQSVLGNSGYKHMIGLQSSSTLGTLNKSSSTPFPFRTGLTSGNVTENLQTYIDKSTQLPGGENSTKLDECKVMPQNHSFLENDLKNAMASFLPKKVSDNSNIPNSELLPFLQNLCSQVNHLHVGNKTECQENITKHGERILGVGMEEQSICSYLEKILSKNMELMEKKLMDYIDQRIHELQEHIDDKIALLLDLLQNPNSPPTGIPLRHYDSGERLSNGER
UniProt O60829: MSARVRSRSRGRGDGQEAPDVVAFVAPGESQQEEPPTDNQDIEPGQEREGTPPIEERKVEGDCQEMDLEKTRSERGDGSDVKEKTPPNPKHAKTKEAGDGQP
UniProt Q9H6K4: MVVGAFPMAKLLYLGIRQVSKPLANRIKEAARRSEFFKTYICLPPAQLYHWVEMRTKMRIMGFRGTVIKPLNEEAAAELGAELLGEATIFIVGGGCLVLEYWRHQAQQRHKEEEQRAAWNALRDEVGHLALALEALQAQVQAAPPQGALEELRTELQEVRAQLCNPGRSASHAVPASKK
UniProt Q8N138: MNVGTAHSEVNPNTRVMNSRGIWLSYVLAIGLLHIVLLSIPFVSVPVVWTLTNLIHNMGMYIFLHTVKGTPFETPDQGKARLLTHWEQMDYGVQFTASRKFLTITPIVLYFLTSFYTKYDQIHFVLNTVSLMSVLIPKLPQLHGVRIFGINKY
UniProt Q86UD1: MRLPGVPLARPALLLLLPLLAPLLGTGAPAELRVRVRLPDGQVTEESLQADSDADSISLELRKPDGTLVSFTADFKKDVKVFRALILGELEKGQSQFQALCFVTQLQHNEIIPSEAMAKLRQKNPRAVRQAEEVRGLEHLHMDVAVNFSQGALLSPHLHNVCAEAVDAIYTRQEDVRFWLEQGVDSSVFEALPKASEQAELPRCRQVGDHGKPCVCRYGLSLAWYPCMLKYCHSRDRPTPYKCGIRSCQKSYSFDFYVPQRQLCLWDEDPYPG
UniProt Q8N573: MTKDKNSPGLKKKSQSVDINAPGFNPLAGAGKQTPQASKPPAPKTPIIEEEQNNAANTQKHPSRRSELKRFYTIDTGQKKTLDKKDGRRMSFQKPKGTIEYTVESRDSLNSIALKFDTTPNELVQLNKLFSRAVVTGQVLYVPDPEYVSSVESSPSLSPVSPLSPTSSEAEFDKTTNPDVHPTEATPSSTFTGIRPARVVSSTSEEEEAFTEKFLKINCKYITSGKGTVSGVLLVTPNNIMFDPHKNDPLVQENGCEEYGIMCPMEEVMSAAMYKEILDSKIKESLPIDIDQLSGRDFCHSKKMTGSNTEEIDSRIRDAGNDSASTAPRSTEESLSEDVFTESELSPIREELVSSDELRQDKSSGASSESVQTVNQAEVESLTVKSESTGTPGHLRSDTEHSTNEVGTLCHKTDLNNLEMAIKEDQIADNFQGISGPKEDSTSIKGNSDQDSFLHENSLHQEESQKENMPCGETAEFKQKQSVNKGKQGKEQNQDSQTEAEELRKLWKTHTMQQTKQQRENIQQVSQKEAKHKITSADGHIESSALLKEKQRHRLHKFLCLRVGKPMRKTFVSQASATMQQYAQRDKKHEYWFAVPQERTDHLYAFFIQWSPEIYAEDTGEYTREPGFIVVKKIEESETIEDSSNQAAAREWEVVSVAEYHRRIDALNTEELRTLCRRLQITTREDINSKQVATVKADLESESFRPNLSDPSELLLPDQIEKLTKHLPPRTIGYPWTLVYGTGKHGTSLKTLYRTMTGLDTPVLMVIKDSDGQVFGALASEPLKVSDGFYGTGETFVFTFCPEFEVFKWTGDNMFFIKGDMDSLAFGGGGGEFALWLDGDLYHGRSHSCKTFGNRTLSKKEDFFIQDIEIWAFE

Key:
Test in all cases: log2 fold change, soluble protein after heating vs DMSO (PISA); higher = thermal stabilisation; K562 lysate, 10 uM; active = over 0.2 and 3.5 SD of the protein, either way, in both replicates (recomputed)
vemurafenib = compound: CCCS(=O)(=O)Nc1ccc(F)c(C(=O)c2c[nH]c3ncc(-c4ccc(Cl)cc4)cc23)c1F [vemurafenib]
In short: (§1)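 Soluble protein was defined as the supernatant remaining after 21,000xg for 90 min, following pooling of heated aliquots and adjustment to 0.5% NP-40 at 4°C. Before that, crude K562 extract at 1 mg/mL protein in PBS pH 7.4 with 1 mM MgCl2 was treated with 10 μM compound for 30 min and heated for 3 min across 48°C-58°C. Quantification used TMTpro 16plex LC-MS/MS with channel sums equalised, and values are log-two fold changes in thermal stability relative to solvent controls from duplicates.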

[1] = compound: CCCS(=O)(=O)Nc1ccc(F)c(C(=O)c2c[nH]c3ncc(Cl)cc23)c1F
In short: as §1

barasertib = compound: CCN(CCCOc1ccc2c(Nc3cc(CC(=O)Nc4cccc(F)c4)[nH]n3)ncnc2c1)CCOP(=O)(O)O [barasertib]
In short: as §1

[2] = compound: CC[C@@H]1C(=O)N(C)c2cnc(Nc3ccc(C(=O)NC4CCN(C)CC4)cc3OC)nc2N1C1CCCC1
In short: as §1

volasertib = compound: CC[C@@H]1C(=O)N(C)c2cnc(Nc3ccc(C(=O)N[C@H]4CC[C@H](N5CCN(CC6CC6)CC5)CC4)cc3OC)nc2N1C(C)C [volasertib]
In short: as §1

sotrastaurin = compound: CN1CCN(c2nc(C3=C(c4c[nH]c5ccccc45)C(=O)NC3=O)c3ccccc3n2)CC1 [sotrastaurin]
In short: as §1

defactinib = compound: CNC(=O)c1ccc(Nc2ncc(C(F)(F)F)c(NCc3nccnc3N(C)S(C)(=O)=O)n2)cc1 [defactinib]
In short: as §1

encorafenib = compound: COC(=O)N[C@@H](C)CNc1nccc(-c2cn(C(C)C)nc2-c2cc(Cl)cc(NS(C)(=O)=O)c2F)n1 [encorafenib]
In short: as §1

[3] = compound: COC(=O)[C@H](CCSC)NC(=O)C1=C(C=C(C=C1)NC[C@H](CS)N)C2=CC=CC=C2
In short: as §1

[4] = compound: COc1cc2nc(-c3cc(F)ccc3O)nc(N[C@@H]3CNC[C@H]3C(C)(C)O)c2cc1OC
In short: as §1

[5] = compound: CCn1c(C(=O)N(C2CC2)C2CC2)cc2c3c(ncn3C)c(Nc3cc(C)n(C)n3)nc21
In short: as §1

[6] = compound: CCn1cc(-c2ccnc3[nH]c(-c4cccc(CN(C)C)c4)cc23)c(-c2ccc(NC(=O)N(C)C)cc2)n1
In short: as §1

[7] = compound: CN1CCC(CNc2ccc3ncc(-c4cccc(OC(F)(F)F)c4)n3n2)CC1
In short: as §1

saracatinib = compound: CN1CCN(CCOc2cc(OC3CCOCC3)c3c(Nc4c(Cl)ccc5c4OCO5)ncnc3c2)CC1 [saracatinib]
In short: as §1

alvocidib = compound: CN1CC[C@H](c2c(O)cc(O)c3c(=O)cc(-c4ccccc4Cl)oc23)[C@H](O)C1 [alvocidib]
In short: as §1

Tubastatin A = compound: CN1CCc2c(c3ccccc3n2Cc2ccc(C(=O)NO)cc2)C1 [Tubastatin A]
In short: as §1

[8] = compound: CNC(=O)C1=CC=CC=C1NC2=NC(=NC=C2Cl)NC3=C(C=C(C=C3)N4CCOCC4)OC
In short: as §1

[9] = compound: CNc1nc(-c2ccc3c(N)n[nH]c3c2)cc(N2C[C@@H](C(=O)NC3CCCCC3)CC[C@H]2C)n1
In short: as §1

alisertib = compound: COc1cc(Nc2ncc3c(n2)-c2ccc(Cl)cc2C(c2c(F)cccc2OC)=NC3)ccc1C(=O)O [alisertib]
In short: as §1

gefitinib = compound: COc1cc2ncnc(Nc3ccc(F)c(Cl)c3)c2cc1OCCCN1CCOCC1 [gefitinib]
In short: as §1

Target	log2 fold change (vemurafenib)	log2 fold change [1]	log2 fold change (barasertib)	log2 fold change [2]	log2 fold change (volasertib)	log2 fold change (sotrastaurin)	log2 fold change (defactinib)	log2 fold change (encorafenib)	log2 fold change [3]	log2 fold change [4]	log2 fold change [5]	log2 fold change [6]	log2 fold change [7]	log2 fold change (saracatinib)	log2 fold change (alvocidib)	log2 fold change (Tubastatin A)	log2 fold change [8]	log2 fold change [9]	log2 fold change (alisertib)	log2 fold change (gefitinib)
OSGEPL1 (UniProt Q9H4B0)	inactive: 0.078	inactive: 0.009	inactive: -0.159	inactive: -0.058	inactive: 0.069	inactive: -0.017	inactive: -0.082	inactive: -0.123	inactive: 0.039	inactive: 0.021	–	–	–	–	–	–	–	–	–	–
OMA1 (UniProt Q96E52)	inactive: -0.005	inactive: 0.058	inactive: -0.017	inactive: 0.009	inactive: -0.028	inactive: -0.017	inactive: 0.009	inactive: -0.025	inactive: -0.125	inactive: -0.016	inactive: 0	inactive: -0.027	inactive: -0.045	inactive: -0.001	inactive: -0.033	inactive: -0.021	inactive: -0.009	inactive: -0.005	inactive: -0.01	inactive: -0.008
P2RX4 isoform 2 (UniProt Q99571)	inactive: 0.133	inactive: -0.049	inactive: -0.042	inactive: 0.047	inactive: -0.034	inactive: 0.099	inactive: -0.093	inactive: 0.001	inactive: 0.028	inactive: 0.098	inactive: 0.022	inactive: -0.276	inactive: 0.229	inactive: -0.016	inactive: -0.097	inactive: 0.033	inactive: 0.038	inactive: 0.1	–	–
P3H3 (UniProt Q8IVL6)	inactive: -0.161	–	–	–	–	–	inactive: 0.095	–	–	–	–	–	–	inactive: 0.18	–	–	inactive: -0.181	inactive: 0.141	–	–
NVL (UniProt O15381)	inactive: -0.032	inactive: 0.028	inactive: 0.089	–	inactive: 0.005	inactive: 0.006	inactive: -0.005	–	–	inactive: 0.072	inactive: 0.055	inactive: -0.025	inactive: 0.052	inactive: -0.009	inactive: -0.061	inactive: -0.144	inactive: -0.038	inactive: -0.067	inactive: 0.024	inactive: 0.067
ODF2 (UniProt Q5BJF6)	inactive: -0.058	–	inactive: 0.112	inactive: 0.121	–	inactive: 0.093	inactive: 0	inactive: 0.014	inactive: 0.018	–	inactive: 0.157	inactive: -0.107	inactive: -0.027	inactive: 0.039	inactive: 0.129	inactive: 0.134	inactive: 0.034	inactive: -0.047	inactive: -0.131	inactive: 0.003
OSTF1 (UniProt Q92882)	inactive: -0.003	inactive: -0.008	inactive: 0.027	inactive: -0.032	inactive: -0.03	inactive: -0.036	inactive: 0.084	inactive: -0.045	inactive: -0.022	inactive: -0.01	inactive: 0	inactive: -0.029	inactive: 0.005	inactive: 0.028	inactive: -0.003	inactive: -0.018	inactive: -0.048	inactive: 0.025	inactive: 0.019	inactive: -0.005
PANK2 (UniProt Q9BZ23)	inactive: 0.093	inactive: -0.036	inactive: -0.047	inactive: 0.011	inactive: -0.086	inactive: 0.027	inactive: 0.023	inactive: -0.01	inactive: 0.014	inactive: -0.046	inactive: 0.002	inactive: -0.167	inactive: -0.057	inactive: 0.068	inactive: 0.057	inactive: 0.108	–	inactive: 0	active: 0.35	inactive: -0.233
OGFR (UniProt Q9NZT2)	inactive: -0.033	inactive: 0.025	inactive: 0.003	inactive: -0.012	inactive: -0.067	inactive: 0.053	inactive: -0.015	inactive: 0.02	inactive: 0.089	inactive: -0.003	inactive: 0.004	inactive: 0.12	inactive: -0.039	inactive: 0.022	inactive: 0.022	inactive: -0.089	inactive: 0.002	inactive: -0.03	inactive: -0.003	inactive: -0.004
P4HA1 isoform 2 (UniProt P13674)	inactive: 0.015	–	inactive: -0.02	inactive: 0.007	–	inactive: 0.014	inactive: -0.037	inactive: 0.021	inactive: 0.003	–	inactive: 0.055	inactive: -0.076	inactive: 0.081	–	inactive: -0.13	inactive: -0.246	inactive: 0.108	–	–	–
NXT1 (UniProt Q9UKK6)	inactive: 0.013	inactive: 0.056	inactive: 0.377	–	inactive: 0.032	–	inactive: 0.041	–	–	inactive: 0.061	inactive: 0.031	inactive: 0.2	inactive: 0.075	–	inactive: -0.006	inactive: 0.007	inactive: -0.044	–	inactive: 0.058	inactive: 0.131
PAAT (UniProt Q9H8K7)	inactive: 0.02	inactive: -0.024	inactive: -0.016	inactive: -0.05	inactive: 0.116	inactive: -0.034	inactive: 0.042	inactive: 0.012	inactive: -0.002	inactive: 0.089	inactive: 0.018	inactive: 0.061	inactive: -0.042	inactive: -0.001	inactive: 0.009	inactive: -0.019	inactive: -0.044	inactive: 0.039	–	–
PAGE4 (UniProt O60829)	–	inactive: 0.015	inactive: 0.108	inactive: 0.039	inactive: 0.002	inactive: 0.092	–	inactive: -0.005	inactive: -0.086	inactive: 0.057	inactive: -0.042	inactive: 0.476	inactive: -0.158	inactive: 0.046	inactive: 0.086	inactive: 0.027	inactive: -0.072	inactive: -0.038	–	–
PAPSS2 isoform 2 (UniProt O95340)	inactive: 0.044	inactive: -0.013	inactive: 0.047	inactive: 0.054	inactive: -0.02	–	inactive: -0.03	inactive: -0.059	inactive: 0.029	inactive: 0.037	–	inactive: -0.511	inactive: 0.12	–	inactive: -0.108	–	–	–	–	–
PABPN1 (UniProt Q86U42)	–	inactive: -0.01	inactive: -0.01	inactive: 0.097	inactive: 0.092	inactive: -0.022	–	inactive: -0.177	inactive: 0.184	inactive: 0.006	inactive: -0.057	inactive: -0.084	inactive: 0.085	inactive: -0.035	inactive: -0.153	inactive: 0.088	–	inactive: 0.079	inactive: 0.036	inactive: 0.007
OXA1L (UniProt Q15070)	inactive: -0.01	inactive: 0.001	inactive: -0.003	inactive: -0.04	inactive: 0	inactive: -0.012	inactive: -0.024	inactive: 0.017	inactive: -0.04	inactive: -0.078	inactive: 0.016	inactive: -0.137	inactive: -0.022	inactive: -0.048	inactive: 0.018	inactive: 0.006	inactive: 0.034	inactive: -0.077	inactive: 0.038	inactive: -0.068
OPA3 isoform 2 (UniProt Q9H6K4)	–	–	–	–	–	inactive: 0.023	–	–	–	–	–	–	–	inactive: 0.088	–	–	–	inactive: 0.057	–	–
ORMDL3 (UniProt Q8N138)	–	inactive: 0.167	–	–	inactive: -0.054	inactive: 0.122	–	–	–	inactive: 0.026	–	–	–	inactive: 0.222	–	–	–	inactive: 0.047	–	–
PALM isoform 2 (UniProt O75781)	–	–	–	–	–	–	–	–	–	–	–	–	–	–	–	–	inactive: 0.185	–	–	–
OAF (UniProt Q86UD1)	–	–	–	–	–	–	–	–	–	–	inactive: 0.017	–	–	inactive: 0.202	–	inactive: -0.183	inactive: -0.06	inactive: -0.039	–	–
OXR1 isoform 2 (UniProt Q8N573)	–	–	–	–	–	–	–	–	–	–	inactive: -0.048	inactive: 0.084	inactive: -0.046	–	inactive: 0.037	inactive: -0.037	–	–	–	–

Quoted at random: two entries already listed.
Target	log2 fold change (vemurafenib)	log2 fold change [1]	log2 fold change (barasertib)	log2 fold change [2]	log2 fold change (volasertib)	log2 fold change (sotrastaurin)	log2 fold change (defactinib)	log2 fold change (encorafenib)	log2 fold change [3]	log2 fold change [4]	log2 fold change [5]	log2 fold change [6]	log2 fold change [7]	log2 fold change (saracatinib)	log2 fold change (alvocidib)	log2 fold change (Tubastatin A)	log2 fold change [8]	log2 fold change [9]	log2 fold change (alisertib)	log2 fold change (gefitinib)
OPA3 isoform 2 (UniProt Q9H6K4)	–	–	–	–	–	inactive: 0.023	–	–	–	–	–	–	–	inactive: 0.088	–	–	–	inactive: 0.057	–	–
ORMDL3 (UniProt Q8N138)	–	inactive: 0.167	–	–	inactive: -0.054	inactive: 0.122	–	–	–	inactive: 0.026	–	–	–	inactive: 0.222	–	–	–	inactive: 0.047	–	–
